Data: patent publication US6407288B1, “Naphthylsalicylanilides as antimicrobial and antiinflammatory agents” (The Research Foundation of State University of New York, priority 2000, dated 2002)
At least one structure is not confirmed: it was looked up by name or label, or the drawing left a doubt.

Experiments:
[1] = test system: Str.pn.R (strain 00-041-0614); assay: Sensitivity of strain to known antibiotics; format: cell-based, Streptococcus; conditions: sensitive / resistant
Protocol: This embodiment illustrates the efficacy of the compounds of the present invention against Streptococcus strains. One of the strains, Str.pn.R was obtained from the Children's Hospital in Buffalo (strain 00-041-0614). […] The sensitivity of this strain was tested against several known antibiotics.

[2] = test system: staphylococcus species R (strain 00-045-1209); assay: Sensitivity of strain to known antibiotics; format: cell-based; conditions: sensitive / resistant
Protocol: This embodiment describes the sensitivity of various staphylococcus strains to the compounds of the present invention. The staphylococcus species R is a strain 00-045-1209 from the Children's Hospital in Buffalo. It was isolated from the peritoneal cavity (fluid culture) of an individual. It was coagulase negative. The sensitivity of this strain was tested agaisnt several known antibiotics.

**Q.** With `CCC[C@@H]1C[C@@H](C(=O)N[C@@H]([C@H]2O[C@H](SC)[C@H](O)[C@@H](O)[C@H]2O)[C@H](C)Cl)N(C)C1` [Clindamycin] as the molecule, how does the “sensitivity of strain Str.pn.R to known antibiotics” value [1] read?
**A.** The value was “sensitive”.

**Q.** And the “sensitivity of staphylococcus species R to known antibiotics” value [2]?
**A.** The value was “resistant”.
